Source: publication PMC11178195
These are yes or no findings as the source states them, for the method shown. Binding seen in cells or lysates may run through a third protein. Some binding calls cover weakened binding; strength is not graded here.

By UniProt entry, the sequences of proteins in these tests, tags left out.
UniProt P35222: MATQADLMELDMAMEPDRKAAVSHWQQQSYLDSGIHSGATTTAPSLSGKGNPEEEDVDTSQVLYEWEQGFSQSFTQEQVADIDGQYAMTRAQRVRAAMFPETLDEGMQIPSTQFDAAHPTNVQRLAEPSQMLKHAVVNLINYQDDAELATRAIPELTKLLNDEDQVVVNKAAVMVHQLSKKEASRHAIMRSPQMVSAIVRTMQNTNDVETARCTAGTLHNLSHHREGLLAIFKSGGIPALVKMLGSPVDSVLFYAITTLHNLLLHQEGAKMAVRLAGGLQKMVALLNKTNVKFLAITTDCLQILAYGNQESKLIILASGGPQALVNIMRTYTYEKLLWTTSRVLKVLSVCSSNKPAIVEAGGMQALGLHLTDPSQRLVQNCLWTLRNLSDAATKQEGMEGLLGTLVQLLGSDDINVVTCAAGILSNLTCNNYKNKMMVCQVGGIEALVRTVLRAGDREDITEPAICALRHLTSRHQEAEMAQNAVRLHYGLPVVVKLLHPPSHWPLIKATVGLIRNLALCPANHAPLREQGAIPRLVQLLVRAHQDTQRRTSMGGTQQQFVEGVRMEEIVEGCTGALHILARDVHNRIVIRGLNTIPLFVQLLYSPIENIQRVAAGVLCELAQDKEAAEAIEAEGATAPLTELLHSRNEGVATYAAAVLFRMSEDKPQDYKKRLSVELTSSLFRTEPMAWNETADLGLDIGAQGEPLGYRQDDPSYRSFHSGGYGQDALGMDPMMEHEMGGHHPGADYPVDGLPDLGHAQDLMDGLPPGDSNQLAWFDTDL

Molecular target: T1, Cadherin-11 (human (endogenous in Ewing sarcoma cell lines)) (UniProt P55287)
T1 sequence: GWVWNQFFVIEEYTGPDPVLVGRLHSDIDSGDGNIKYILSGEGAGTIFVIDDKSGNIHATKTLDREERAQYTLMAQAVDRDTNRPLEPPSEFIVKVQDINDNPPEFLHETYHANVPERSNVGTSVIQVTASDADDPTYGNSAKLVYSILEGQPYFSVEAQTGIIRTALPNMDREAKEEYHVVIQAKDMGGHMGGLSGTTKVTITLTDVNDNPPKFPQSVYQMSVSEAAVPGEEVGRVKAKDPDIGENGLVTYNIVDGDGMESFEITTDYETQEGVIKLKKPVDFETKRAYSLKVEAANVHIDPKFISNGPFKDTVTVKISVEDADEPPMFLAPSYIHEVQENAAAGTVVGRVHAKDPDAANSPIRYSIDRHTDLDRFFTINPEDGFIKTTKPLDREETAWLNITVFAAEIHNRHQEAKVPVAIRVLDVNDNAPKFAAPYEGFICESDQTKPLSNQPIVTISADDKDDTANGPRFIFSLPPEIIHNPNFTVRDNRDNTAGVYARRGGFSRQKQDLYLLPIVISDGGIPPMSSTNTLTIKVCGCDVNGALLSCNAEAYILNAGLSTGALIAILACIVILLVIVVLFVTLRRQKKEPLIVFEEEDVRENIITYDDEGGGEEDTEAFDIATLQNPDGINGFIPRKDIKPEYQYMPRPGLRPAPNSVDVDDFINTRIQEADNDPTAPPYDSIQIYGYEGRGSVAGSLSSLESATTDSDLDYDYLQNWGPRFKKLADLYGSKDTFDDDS
Assay: co-IP; Pierce Co-immunoprecipitation Kit; endogenous proteins of Ewing sarcoma cells; β-catenin detected by western blot; IgG IP as control

binding: binds
Substance: β-catenin (from UniProt P35222 1-781)
